Measurements as given in PubChem BioAssay AID493014 (National Center for Advancing Translational Sciences (NCATS), 2011).
This is one part of the list. The main result of the screen is listed elsewhere. These columns were measured beside it and carry no call. The list favours compounds with an active or inconclusive main result. Potencies come from curve fits of mixed quality, noted in brackets.

Assay: qHTS Assay to Find Inhibitors of Chronic Active B-Cell Receptor Signaling
Details: ABC-DLBCL IkBa-CBG/CBR reporter, luminescence ratio (green luciferase fused to IkBa over red control in TMD8 lymphoma cells), 4 h
In short: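 Compounds up to 46 uM were incubated four hours with TMD8 cells whose green CBG68 luciferase is fused to IkappaBalpha; red CBR luminescence normalised the signal, and concentration-effect curves were fitted to fusion, red and ratio data.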

[1] = measured here: CBR red luminescence, cell number
[2] = measured here: IkBa-CBG green luminescence

CCC(c1c(C)n(C)n(-c2ccccc2)c1=O)c1c(C)n(C)n(-c2ccccc2)c1=O
AC50 [1]: 3.26 µM [rising, partial curve, poor fit]

COC(=O)c1ccc(CSc2nc3c(c(=O)n2-c2ccc(F)cc2)SCC3)o1
AC50 [1]: 11.6 µM [rising, partial curve, poor fit]

Cc1nc(NS(=O)(=O)c2ccccc2)sc1C(=O)NN
AC50 [1]: 2 µM [falling, partial curve, poor fit]

COc1ccc(C(=O)Nc2ccc3c(c2)nc(CCNC(C)=O)n3C)cc1
AC50 [1]: 13 µM [falling, partial curve, poor fit]

O=C(N/N=C/c1c[nH]c2ccccc12)c1cccc(O)c1
AC50 [1]: 14.1 µM [falling, partial curve, poor fit]

Cc1ccccc1Cn1cc(NC(=O)c2cc(C3CC3)on2)cn1
AC50 [1]: 15.8 µM [falling, partial curve, poor fit]

COc1ccccc1-c1c(C(F)(F)F)oc2cc(OC(=O)c3ccccc3[N+](=O)[O-])ccc2c1=O
AC50 [1]: 6.31 µM [rising, partial curve, poor fit]

COc1ccc(C(=O)NNc2ncnc3c2cnn3-c2ccccc2)cc1
AC50 [1]: 35.5 µM [falling, single point]

O=S1(=O)c2ccccc2OC(COCc2ccccc2)CN1C1CC1 (centres undefined)
AC50 [1]: 3.26 µM [rising, partial curve, poor fit]

Cc1ccc(S(=O)(=O)N2CCCCC2)cc1NC(=O)C1CCC1
AC50 [1]: 25.9 µM [rising, single point]
AC50 [2]: 20.6 µM [falling, partial curve, poor fit]

COc1cccc(NC(=O)c2ccc(OC(F)(F)F)cc2)c1
AC50 [1]: 0.731 µM [falling, full curve, poor fit]

CC(=O)Nc1ccc(NC(=O)CSc2nc3[nH]ncc3c(=O)n2-c2ccccc2)cc1
AC50 [1]: 0.631 µM [falling, partial curve, poor fit]

CC(C)NC(=O)NC(=O)COC(=O)c1c2c(nc3ccccc13)CCC2
AC50 [1]: 35.5 µM [falling, single point]

CC(C)c1ccc(/C=C/C(=O)N2CCOCC2)cc1
AC50 [1]: 2.51 µM [rising, full curve]

O=C(NC(=S)NC(CO)Cc1ccccc1)c1ccc(F)cc1 (centres undefined)
AC50 [1]: 35.5 µM [falling, single point]

O=C(Nc1nccs1)C(=O)c1c[nH]c2ccccc12
AC50 [1]: 8.2 µM [falling, partial curve, poor fit]

CCCCn1nc(NC(=O)COC)c2cc3cc(OC)ccc3nc21
AC50 [1]: 2.82 µM [rising, single point]

COc1cccc(N2CCN(C(=O)C3CCCN(c4ncnc5c4nc4n5CCCCC4)C3)CC2)c1 (centres undefined)
AC50 [1]: 11.2 µM [falling, partial curve]

O=C(COc1ccccc1)Nc1ccc(Cl)cn1
AC50 [1]: 11.2 µM [falling, single point]

O=C(Nc1nnc(-c2ccccc2F)s1)C1CCCO1 (centres undefined)
AC50 [1]: 16.4 µM [falling, partial curve, poor fit]

COc1ccccc1-n1c(CNc2c(C)cccc2C)nnc1SCC(=O)N1CCOCC1
AC50 [1]: 2.59 µM [falling, full curve, poor fit]

Cc1[nH]n(C(N)=S)c(=O)c1N=Nc1cc(-c2ccc(Br)cc2)[nH]n1
AC50 [1]: 10 µM [falling, partial curve, poor fit]

COc1ccccc1/C=C/C(=O)NC1CC2CCC1C2 (centres undefined)
AC50 [1]: 3.16 µM [falling, partial curve]

COc1cccc(/C=N/N=C(\N)c2nonc2N)c1O
AC50 [1]: 14.1 µM [falling, single point]

COc1ccc(CCN2CC(O)=C(c3nc4ccccc4c(=O)[nH]3)C2=N)cc1OC
AC50 [1]: 2.31 µM [rising, partial curve, poor fit]

O=C(CSc1nnnn1C1CCCCC1)NCc1cccc(C(=O)O)c1
AC50 [1]: 25.9 µM [rising, partial curve, poor fit]

CCc1c(C(=O)N/N=C/c2ccc(OCc3ccc(F)cc3)c(OC)c2)nnn1-c1nonc1N
AC50 [1]: 6.31 µM [rising, partial curve, poor fit]

Cc1cc2oc(=O)cc(-c3ccccc3)c2c(C)c1-c1ccc(N(C)C)cc1
AC50 [1]: 11.6 µM [rising, partial curve, poor fit]

CN([C@@H](Cc1ccc(OS(=O)(=O)c2cccc3cnccc23)cc1)C(=O)N1CCN(c2ccccc2)CC1)S(=O)(=O)c1cccc2cnccc12
AC50 [1]: 5.8 µM [rising, full curve, poor fit]

COc1ccc(S(=O)(=O)Nc2c(NC3CCCCC3)c3ccccc3oc2=O)cc1OC
AC50 [1]: 15.8 µM [falling, single point]

COC(=O)C1=C(C(=O)OC)C(c2ccc(OC)c(OC)c2)c2sc(=O)[nH]c2S1 (centres undefined)
AC50 [1]: 17.8 µM [rising, single point]

O=C(c1cccs1)N1CCN(c2ncc(C(F)(F)F)cc2Cl)CC1
AC50 [1]: 2.24 µM [rising, full curve, poor fit]

COc1ccccc1NC(=O)CC(=O)c1cccc([N+](=O)[O-])c1
AC50 [1]: 2.24 µM [rising, partial curve, poor fit]

O=C1CC(c2ccco2)CC2=C1C1c3ccccc3C(=O)N1c1ccccc1N2 (centres undefined)
AC50 [1]: 0.231 µM [falling, full curve]

COC(=O)c1cc(OC)c(OC)cc1NC(=O)C1CCCO1 (centres undefined)
AC50 [1]: 29.1 µM [rising, single point]

Clc1ccc(-n2ncc3c(N4CCCCCC4)ncnc32)cc1
AC50 [1]: 0.517 µM [rising, full curve, poor fit]

CCc1ccc(-c2nnn(CCC#N)n2)cc1
AC50 [1]: 15.8 µM [rising, single point]

COc1ccccc1NC(=S)Nc1cccc(F)c1
AC50 [1]: 5.17 µM [falling, single point]

N#C/C(=C\c1ccncc1)c1nc2ccccc2[nH]1
AC50 [1]: 20 µM [falling, single point]

C[C@@H]1C(c2ccc(F)cc2)=NN(c2ccc(Br)cc2)[C@H]1C(=O)N1CCOC1=O
AC50 [1]: 20.6 µM [falling, partial curve, poor fit]

O=C(Cc1cccs1)Nc1nnc(-c2ccc(F)cc2)s1
AC50 [1]: 10 µM [falling, partial curve]

O=C(O)C1=CC(=C(c2ccc(O)c(C(=O)O)c2)c2ccc(O)c(C(=O)O)c2)C=CC1=O
AC50 [1]: 1.84 µM [falling, partial curve, poor fit]

O=C(NC1CCCC1)c1cc(-c2ccccc2)on1
AC50 [1]: 11.2 µM [falling, partial curve]

CCOc1ccc(-c2nnc(-c3ccco3)o2)cc1OCC
AC50 [1]: 5.62 µM [rising, partial curve, poor fit]

CC(=O)Nc1ccccc1NC(=O)C/C(C)=N/NC(=O)C(=O)Nc1cccc(Cl)c1C
AC50 [1]: 12.6 µM [falling, single point]

COc1ccc(OCCSc2nnc(Cc3cccc4ccccc34)n2N)cc1
AC50 [1]: 6.51 µM [rising, single point]

Cc1onc(-c2ccccc2)c1C(=O)Nc1ccc(N2CCOCC2)cc1
AC50 [1]: 2.06 µM [rising, partial curve, poor fit]

CCOC(=O)c1cnc2c(-c3ccc(Cl)cc3)cnn2c1C
AC50 [1]: 0.316 µM [rising, full curve, poor fit]

COCc1cc(C)n(CC(=O)OC)c(=O)c1C#N
AC50 [1]: 12.6 µM [rising, partial curve, poor fit]

CCN1CCN(CCCOc2ccccc2-c2ccccc2)CC1
AC50 [1]: 35.5 µM [falling, single point]

O=c1[nH]c(CSc2ncc(-c3ccc(F)cc3)n2Cc2ccco2)nc2ccccc12
AC50 [1]: 25.1 µM [falling, single point]

Cc1cccc(NCC(=O)N/N=C\c2ccc[nH]2)c1
AC50 [1]: 35.5 µM [rising, single point]

CCOc1ccc(C(C)=O)cc1COC(=O)c1ccccc1C(=O)N(C)Cc1ccccc1
AC50 [1]: 32.6 µM [falling, partial curve, poor fit]

CC(C)[C@H]1CN=C2N(CCNC(=O)CCC3CCCCC3)[C@H](Cc3ccc(O)cc3)CN21
AC50 [1]: 11.2 µM [falling, single point]

COc1ccc(OCCC(=O)N2CCCCC2)cc1
AC50 [1]: 16.4 µM [falling, single point]

C=CCNc1oc(-c2cccc(F)c2)nc1C#N
AC50 [2]: 23.1 µM [falling, single point]

CCc1ccccc1OCC(=O)Nc1cc(S(=O)(=O)N2CCOCC2)ccc1N1CCCCC1
AC50 [1]: 14.6 µM [falling, partial curve]

CC1(C)CC2(CC(c3ccc(F)cc3)c3ccc(O)cc3O2)NC(=S)N1 (centres undefined)
AC50 [1]: 17.8 µM [falling, single point]

Cc1ccc2c(c1)C(=C(C#N)C#N)C(=O)N2CCN1CCOCC1
AC50 [1]: 35.5 µM [falling, single point]

CCCSc1sc(C(=O)OC)c(-c2cccs2)c1C#N
AC50 [1]: 14.1 µM [rising, partial curve]

COc1ccc(Cl)cc1C(=O)NC(=S)Nc1ccccc1N1CCOCC1
AC50 [1]: 35.5 µM [falling, single point]

COc1ccc(-c2cc(C(=O)N3CCN(c4ccc(F)cc4)CC3)no2)cc1OC
AC50 [1]: 17.8 µM [falling, partial curve, poor fit]

C/C(=N\NC(=S)Nc1ccccc1C)c1cc2ccccc2o1
AC50 [1]: 8.91 µM [falling, partial curve]
